Values are relative to the signal before dosing, not to a vehicle control; the signal also falls without drug.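 Fibroblast labels denote human fibroblasts, mainly primary ones from uterus (C12385, HUF), lung (H6013), bone (Hs27A), adrenal (HADF) and skin (WS1), plus mammary HMF and breast cancer-associated Hs343T. Cancer cells are basal-like or mesenchymal-like triple-negative breast cancer lines. A hit is a response shift exceeding 3x replicate standard deviation. The tissue of the other fibroblasts is not given here.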
Tested on: HCC1143
Assay: relative JC-1 red fluorescence (viability) vs pre-drug, coculture with fibroblast (fraction); higher = more viable cancer cells
Method: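 JC-1 labelled TNBC cells cocultured 1:1 (1,500 cells each) with CellTrace Violet stained primary or stromal fibroblasts in 384-well plates in FluoroBrite medium, treated with one of 42 anticancer drugs at 0.1, 1, 10 or 100 uM. JC-1 red fluorescence (mitochondrial integrity in cancer cells only) was read by plate reader every 8 h for 72 h. Values are normalised to each well's pre-drug value. The stock of one drug was tenfold lower, so its dose labels may be too high.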

Nc1ncn([C@@H]2O[C@H](CO)[C@@H](O)[C@H]2O)c(=O)n1 [Azacitidine]
relative JC-1 red fluorescence
Details | 8 h | 16 h | 24 h | 32 h | 40 h | 48 h | 56 h | 64 h | 72 h
0.1 µM, coculture fibroblast: C12385 | 0.81837 | 0.767 | 0.739 | 0.697 | 0.634 | 0.626 | 0.603 | 0.597 | 0.597
0.1 µM, coculture fibroblast: H6013 | 0.801 | 0.764 | 0.73 | 0.725 | 0.685 | 0.688 | 0.665 | 0.647 | 0.592
0.1 µM, coculture fibroblast: H6019 | 0.816 | 0.74 | 0.686 | 0.6238 | 0.57278 | 0.557 | 0.498 | 0.449 | 0.418
0.1 µM, coculture fibroblast: H6076 | 0.8231 | 0.806 | 0.788 | 0.786 | 0.734 | 0.738 | 0.722 | 0.708 | 0.741
0.1 µM, coculture fibroblast: H6231 | 0.816 | 0.787 | 0.72 | 0.669 | 0.626 | 0.603 | 0.568 | 0.538 | 0.524
0.1 µM, coculture fibroblast: HADF | 0.776 | 0.732 | 0.701 | 0.697 | 0.629 | 0.627 | 0.603 | 0.592 | 0.56
0.1 µM, coculture fibroblast: HCFa | 0.7914 | 0.734 | 0.69435 | 0.6781 | 0.6054 | 0.59502 | 0.551 | 0.519 | 0.5
0.1 µM, coculture fibroblast: HCPF | 0.828 | 0.825 | 0.787 | 0.734 | 0.709 | 0.695 | 0.677 | 0.648 | 0.645
0.1 µM, coculture fibroblast: HHSteC | 0.884 | 0.84 | 0.805 | 0.777 | 0.721 | 0.708 | 0.673 | 0.657 | 0.604
0.1 µM, coculture fibroblast: HMF | 0.8 | 0.817 | 0.743 | 0.6569 | 0.6422 | 0.617 | 0.578 | 0.557 | 0.531
0.1 µM, coculture fibroblast: HPFa | 0.8818 | 0.81 | 0.794 | 0.7 | 0.658 | 0.633 | 0.584 | 0.55 | 0.519
0.1 µM, coculture fibroblast: HUF | 0.868 | 0.797 | 0.744 | 0.676 | 0.631 | 0.61 | 0.56 | 0.534 | 0.511
0.1 µM, coculture fibroblast: Hs5 | 0.8615 | 0.867 | 0.837 | 0.823 | 0.745 | 0.71987 | 0.699 | 0.679 | 0.686
0.1 µM, coculture fibroblast: Hs27A | 0.76 | 0.7428 | 0.7075 | 0.7274 | 0.632 | 0.6427 | 0.6119 | 0.602 | 0.564
0.1 µM, coculture fibroblast: Hs343T | 0.8186 | 0.836 | 0.781 | 0.7032 | 0.683 | 0.641 | 0.6032 | 0.579 | 0.559
0.1 µM, coculture fibroblast: WS1 | 0.814 | 0.7284 | 0.685 | 0.6046 | 0.548 | 0.526 | 0.49 | 0.471 | 0.456
1 µM, coculture fibroblast: C12385 | 0.8501 | 0.753 | 0.696 | 0.623 | 0.553 | 0.507 | 0.462 | 0.424 | 0.4
1 µM, coculture fibroblast: H6013 | 0.721 | 0.646 | 0.601 | 0.58 | 0.511 | 0.494 | 0.467 | 0.449 | 0.427
1 µM, coculture fibroblast: H6019 | 0.801 | 0.747 | 0.696 | 0.639 | 0.588 | 0.57 | 0.522 | 0.484 | 0.44
1 µM, coculture fibroblast: H6076 | 0.791 | 0.7406 | 0.708 | 0.7 | 0.628 | 0.612 | 0.588 | 0.573 | 0.577
1 µM, coculture fibroblast: H6231 | 0.808 | 0.813 | 0.725 | 0.591 | 0.6 | 0.553 | 0.51 | 0.462 | 0.427
1 µM, coculture fibroblast: HADF | 0.701 | 0.608 | 0.565 | 0.577 | 0.47 | 0.442 | 0.407 | 0.384 | 0.38
1 µM, coculture fibroblast: HCFa | 0.76 | 0.68 | 0.639 | 0.624 | 0.546 | 0.516 | 0.473 | 0.443 | 0.416
1 µM, coculture fibroblast: HCPF | 0.8351 | 0.792 | 0.765 | 0.712 | 0.696 | 0.671 | 0.641 | 0.617 | 0.615
1 µM, coculture fibroblast: HHSteC | 0.817 | 0.749 | 0.723 | 0.693 | 0.641 | 0.616 | 0.573 | 0.541 | 0.499
1 µM, coculture fibroblast: HMF | 0.814 | 0.79 | 0.765 | 0.769 | 0.709 | 0.693 | 0.665 | 0.641 | 0.647
1 µM, coculture fibroblast: HPFa | 0.894 | 0.809 | 0.76 | 0.664 | 0.613 | 0.579 | 0.516 | 0.477 | 0.439
1 µM, coculture fibroblast: HUF | 0.852 | 0.776 | 0.729 | 0.6468 | 0.597 | 0.5689 | 0.5171 | 0.488 | 0.463
1 µM, coculture fibroblast: Hs5 | 0.8366 | 0.789 | 0.7515 | 0.7397 | 0.664 | 0.646 | 0.6189 | 0.59275 | 0.5913
1 µM, coculture fibroblast: Hs27A | 0.705 | 0.604 | 0.561 | 0.573 | 0.457 | 0.44 | 0.399 | 0.376 | 0.359
1 µM, coculture fibroblast: Hs343T | 0.823 | 0.787 | 0.74 | 0.702 | 0.655 | 0.629 | 0.594 | 0.585 | 0.567
1 µM, coculture fibroblast: WS1 | 0.8221 | 0.781 | 0.73 | 0.682 | 0.626 | 0.591 | 0.55 | 0.519 | 0.494

Reference: the supplement of paper PMC6078165
